PubChem BioAssay AID602196 | INSERM – 2012
This is an unselected part of about 23,000 reagents tested. 455 of them (2%) count as active. 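Active includes both protection and sensitisation; some change values fall well beyond the stated -50 to +50 range.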 The numbers tell different reagents against one gene apart. Not all columns of the deposit are shown. No sequences are given here. Not given: the amount of reagent.

- Test: 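Modifiers of cisplatin sensitivity in A549 cells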
- System: human A549 lung cancer cells
- Reagents: siRNA pair against human genes
- Timing: 48 h transfection before cisplatin; time from cisplatin to read-out not stated
- Treatment: cisplatin at a dose killing half of control-siRNA cells; exact dose and duration not given
- Read-out: 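Shift in cisplatin death relative to control siRNA, from -50 (all cells die) to +50 (no cells die); siRNAs harmful on their own scored 0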
- Reading the numbers: two-siRNA summed score (-2 to +2): higher = both siRNAs protect from cisplatin killing; -2 means both sensitise; mean protection from cisplatin (shift in death): higher = protection from cisplatin killing
- Active means: 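siRNAs harmful alone (LDH or WST-1) get 0; others get +1 for less and -1 for more cisplatin killing; genes are active when the two siRNAs give the same sign, summing to ±2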
- Calls: active = both siRNAs shift cisplatin killing the same way; inactive = no consistent shift, or siRNA harmful alone

Silencing of CNMD (chondromodulin) gave: two-siRNA summed score (-2 to +2) = 0; mean protection from cisplatin (shift in death) (%) = -3.2; inactive.
After knock-down of MT1DP (metallothionein 1D, pseudogene) #1 the results were two-siRNA summed score (-2 to +2) = 0; mean protection from cisplatin (shift in death) (%) = 10.1; inactive.
Against MT1DP (metallothionein 1D, pseudogene) #2, the entry reads two-siRNA summed score (-2 to +2) = 0; mean protection from cisplatin (shift in death) (%) = 20.3; inactive.
With knock-down of LGALS1 (galectin 1), the record shows two-siRNA summed score (-2 to +2) = 0; mean protection from cisplatin (shift in death) (%) = -1.8; inactive.
Knock-down of LOC442125 resulted in: two-siRNA summed score (-2 to +2) = 2; mean protection from cisplatin (shift in death) (%) = 21.4; active.
For CMTR1 (cap methyltransferase 1), the entry reads two-siRNA summed score (-2 to +2) = 0; mean protection from cisplatin (shift in death) (%) = -10.7; inactive.
For ENHO (energy homeostasis associated), the values are two-siRNA summed score (-2 to +2) = 0; mean protection from cisplatin (shift in death) (%) = 10.8; inactive.
Against USP6NL (USP6 N-terminal like) the deposit lists two-siRNA summed score (-2 to +2) = 0; mean protection from cisplatin (shift in death) (%) = 5; inactive.
For PSG2 (pregnancy specific beta-1-glycoprotein 2), the values are two-siRNA summed score (-2 to +2) = -1; mean protection from cisplatin (shift in death) (%) = -2.9; inactive.
With knock-down of ERC1 (ELKS/RAB6-interacting/CAST family member 1) the results were two-siRNA summed score (-2 to +2) = -1; mean protection from cisplatin (shift in death) (%) = -15.1; inactive.
Silencing of CHST8 (carbohydrate sulfotransferase 8) resulted in: two-siRNA summed score (-2 to +2) = -1; mean protection from cisplatin (shift in death) (%) = -4; inactive.
TOP3A (DNA topoisomerase III alpha) showed two-siRNA summed score (-2 to +2) = 0; mean protection from cisplatin (shift in death) (%) = 11.5; inactive.
After knock-down of LOC340477, the record shows two-siRNA summed score (-2 to +2) = 0; mean protection from cisplatin (shift in death) (%) = 3.9; inactive.
KRTAP5-11 (keratin associated protein 5-11) gave two-siRNA summed score (-2 to +2) = 0; mean protection from cisplatin (shift in death) (%) = 17.9; inactive.
Knock-down of HECW2 resulted in: two-siRNA summed score (-2 to +2) = 0; mean protection from cisplatin (shift in death) (%) = 17.1; inactive.
Knock-down of MCF2 (MCF.2 cell line derived transforming sequence) came out at: two-siRNA summed score (-2 to +2) = 1; mean protection from cisplatin (shift in death) (%) = 10.6; inactive.
GHRHR (growth hormone releasing hormone receptor) scored two-siRNA summed score (-2 to +2) = 0; mean protection from cisplatin (shift in death) (%) = 9; inactive.
Depletion of EDC4 (enhancer of mRNA decapping 4) gave: two-siRNA summed score (-2 to +2) = 0; mean protection from cisplatin (shift in death) (%) = 11.4; inactive.
With knock-down of MRPS35 (mitochondrial ribosomal protein S35), the record shows two-siRNA summed score (-2 to +2) = 0; mean protection from cisplatin (shift in death) (%) = -1.9; inactive.
MS4A8 (membrane spanning 4-domains A8) showed two-siRNA summed score (-2 to +2) = 0; mean protection from cisplatin (shift in death) (%) = -0.1; inactive.
Knock-down of INTS10 (integrator complex subunit 10) came out at: two-siRNA summed score (-2 to +2) = -1; mean protection from cisplatin (shift in death) (%) = -17.5; inactive.

Entries above called active (1):
LOC442125: two-siRNA summed score (-2 to +2) = 2; mean protection from cisplatin (shift in death) (%) = 21.4; Call = active
